From PMC4394464, “Identification and Pharmacokinetics of Multiple Potential Bioactive Constituents after Oral Administration of Radix Astragali on Cyclophosphamide-Induced Immunosuppression in Balb/c Mice” (International Journal of Molecular Sciences, 2015)

Assay: Profiling of absorbed constituents and metabolites in mice plasma after oral administration of RA (UFLC-DAD-Q-TOF-MS/MS)
Details: oral RA extract 6 g/kg BW; cyclophosphamide-induced immunosuppressed Balb/c mice; plasma sampled 0.25-36 h; '-' = not detected

COc1cc(O)c2c(=O)c(O)c(-c3ccc(O)cc3)oc2c1 [Peak M8, Rhamnocitrin]
Source: Dosed Plasma (time points at which the compound was detected): 0.25 to 8 h
